Test results: article PMC11723901
These are yes or no findings as the source states them, for the method shown. In cells and extracts the contact can be indirect. These calls come from enrichment with a bait or labelling near it, and not all partners need be listed.

Sequences of proteins named here, by UniProt entry; tags and fusion partners are left off. A change or cut given only in a name is not applied to a line headed by its entry.
UniProt A0A1P8BFE0: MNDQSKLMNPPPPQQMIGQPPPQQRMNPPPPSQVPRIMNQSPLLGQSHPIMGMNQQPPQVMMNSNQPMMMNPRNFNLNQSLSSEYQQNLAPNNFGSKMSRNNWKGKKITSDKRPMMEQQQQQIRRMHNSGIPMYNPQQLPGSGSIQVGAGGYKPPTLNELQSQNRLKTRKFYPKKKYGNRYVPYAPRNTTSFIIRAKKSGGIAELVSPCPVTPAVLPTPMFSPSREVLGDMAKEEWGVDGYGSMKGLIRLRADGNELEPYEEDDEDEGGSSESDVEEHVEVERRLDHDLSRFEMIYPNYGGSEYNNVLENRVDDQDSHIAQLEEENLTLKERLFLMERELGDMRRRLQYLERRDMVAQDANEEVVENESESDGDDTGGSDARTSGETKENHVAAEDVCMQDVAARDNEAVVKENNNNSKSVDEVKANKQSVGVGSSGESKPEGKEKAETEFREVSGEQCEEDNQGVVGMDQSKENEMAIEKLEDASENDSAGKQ

The substances below were run against …OOF 2 fused to GFP (SHP2-GFP) (Arabidopsis) (UniProt P29385) (assay: affinity purification with mass spectrometry; GFP-trap magnetic beads (ChromoTek) on total protein from 1 g inflorescence of pSHP2:SHP2-GFP plants, with Col-0 wild type as control; lysis buffer 50 mM Tris/HCl pH 7.5, 150 mM NaCl, 10 mM MgCl2, 10% glycerol, 1 mM EDTA, 2 mM DTT, 1% Triton X-100, NP40; LC-MS/MS (DIA); three biological replicates).

| binding | Substance |
| --- | --- |
| binds | … 3 (Agamous-like MADS-box protein AGL9) (from UniProt O22456 1-251) |
| binds | …OOF 1 (SHP1) (from UniProt P29381 1-248) |

More lines, now with the values behind:

| Substance | binding |
| --- | --- |
| AT5G19900 protein (PRLI-interacting factor) (from UniProt A0A1P8BFE0) | binds |
| MADS-box protein AGL11 (Protein …) (from UniProt Q38836 1-230) | binds |
| MADS-box protein SHORT … PHASE (from UniProt Q9FVC1 1-240) | binds |
